Source: patent US20260055141A1 (The Trustees of the University of Pennsylvania, priority 2022, published 2026)

Assay: peptide synthesis
Conditions: whole synthesis

Row | Substance | final HPLC purity
1 | TFTSDLSKYLEEEVREFIWLKNGGPSDVNTDRPGLLDLK-NH2 | 98.3% purity
2 | HsQGTFTSDLSKYLEEEVREFIWLKNGGPSDVNTDRPGLLDLK-NH2 | 100% purity
